Drawing on PubChem BioAssay AID2685 (National Center for Advancing Translational Sciences (NCATS), 2010), this text covers AC50 and cell number change for 62 compounds.

This assay in a line: qHTS Assay for Lipid Storage Modulators in Drosophila S3 Cells.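 For cell number change: cells counted by Cell Tracker Red CMTPX staining in the red channel.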 The following applies: BODIPY lipid droplet fluorescence, 18-24 h; for cell number change: measured here: cell count max response, cells fed with added oleic acid. The method in brief:
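Drosophila S3 cells got compounds at several concentrations plus oleic acid (400 uM solution). Laser-scanning cytometry with 488 nm excitation read lipid droplets at 500-530 nm and cells at 575-640 nm. Percent activity was relative to 20 uM Triacsin C.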
(In qHTS, concentration-response curves come from the screen itself.)

[1] abbreviates: measured here: cell number channel AC50, cells fed with added oleic acid.
[2] abbreviates: measured here: lipid fluorescence (Fed channel) AC50, cells fed with added oleic acid.

This is one part of the list. Further columns of the screen follow, without active or inactive calls. Compounds called inactive in the main read-out are mostly missing here. Potencies come from curve fits of mixed quality, noted in brackets.

By AC50 is commonly meant the concentration at which the activity in the assay is half-maximal. With `O=C(NCc1ccc2c(c1)OCO2)c1nn2cccnc2c1Cl`, the AC50 under setting [1] is 0.206 µM [rising, full curve] and the AC50 under setting [2] was 0.731 µM [rising, partial curve, poor fit].

Take `CCCCn1c(N)c(N(CCOC)C(=O)COC(=O)c2cc(CC)c(C)s2)c(=O)[nH]c1=O`: the cell number change is -16.3%. Besides, the AC50 under setting [2] is 23.1 µM [falling, single point].

For `Cc1ccc2c(Cl)c(C(=O)NCCc3ccccc3)sc2c1`, the cell number change came to 87.5%. Further, the AC50 under setting [1] was 6.51 µM [rising, partial curve, poor fit]. Also, under setting [2], the AC50 was 11.6 µM [rising, partial curve].

Consider `COc1ccc(NCc2ccsc2)cc1`, for which the cell number change was -22.7%. The AC50 under setting [2] was 29.1 µM [rising, single point].

As for `O=S(=O)(NCCc1cn2ccccc2n1)c1cccs1`, under setting [2], the AC50 was 5.8 µM [falling, single point].

For the compound `O=C(NCc1ccccn1)c1cccc(S(=O)(=O)Nc2ccc(F)cc2)c1`, the AC50 under setting [1] is 4.11 µM [rising, single point].

On to `CCOc1ccc(/C=C/C2=CC(C)(C)NC(=S)N2)cc1`, for which the AC50 under setting [2] is 32.6 µM [falling, single point].

On to `COc1ccc(C2CC(c3ccccc3)Nc3ncnn32)cc1` (stereo not drawn), for which the cell number change worked out at 7.57%.

For the compound `Cn1cc([N+](=O)[O-])c(C(=O)Nc2nc(-c3ccc(Cl)cc3)cs2)n1`, under setting [1], the AC50 is 0.206 µM [rising, full curve, poor fit].

Regarding `COc1ccccc1-c1csc(NC(=O)c2cc(-c3cccs3)nc3ccccc23)n1`, the cell number change came out at 1.34%.

Regarding `O=C(NNC(=O)c1ccccc1Cl)c1ccc(-n2cncn2)c([N+](=O)[O-])c1`, the cell number change was 8.88%.

For `COc1ccc(CCC(=O)N2CCN(c3ccc([N+](=O)[O-])cc3)CC2)cc1OC`, the cell number change was 47.5%. In addition, the AC50 under setting [1] was 13 µM [rising, partial curve, poor fit].

On to `CCOC(=O)c1ccccc1NC(=O)COC(=O)c1ccccc1C(=O)N(C)c1ccccc1`, for which the cell number change amounted to 42.9%. Besides, the AC50 under setting [1] was 2.59 µM [rising, full curve]. Also, under setting [2], the AC50 was 0.366 µM [rising, full curve].

Regarding `Cc1ccc(S(=O)(=O)NNC(=O)C2CCCCC2)cc1`, under setting [2], the AC50 was 0.82 µM [falling, full curve].

`COc1ccc(-c2noc(=O)n2Cc2ccccc2F)cc1`: the cell number change was 2.46%. For the same compound, the AC50 under setting [2] is 2.06 µM [rising, partial curve].

Consider `Cc1ccc2cc(CN(c3ccccc3C)S(=O)(=O)c3ccccc3)c(=O)[nH]c2c1`, for which the cell number change is -5.81%. For the same compound, the AC50 under setting [2] was 0.731 µM [falling, single point].

As for `Cc1ccc(C(=O)Nc2nnc(S(=O)(=O)N3CCOCC3)s2)cc1`, the cell number change was 4.32%. Under setting [2], the AC50 is 23.1 µM [rising, single point].

Take `O=C(Nc1ccc(S(=O)(=O)Nc2nccs2)cc1)c1ccc(S(=O)(=O)N2CCOCC2)cc1`: the cell number change is -19.8%. The AC50 under setting [1] was 0.082 µM [rising, full curve, poor fit].

Turning to `Cc1cc(C)c(C)c(S(=O)(=O)Nc2ccc(O)cc2)c1C`, the AC50 under setting [2] was 6.51 µM [falling, single point].

Take `CCc1c(C#N)c(SCCC(=O)Nc2ccc(OC)cc2)nc2c1C(=O)CC(C)(C)C2`: the cell number change was -6.35%. Besides, the AC50 under setting [2] was 0.58 µM [rising, single point].

For `Cc1cc(C(=O)N2CCCC(N3CCN(c4ccccc4C)CC3)C2)n(C)n1` (stereo not drawn), the cell number change worked out at 8.67%. Under setting [2], the AC50 was 0.0058 µM [rising, full curve, poor fit].

Take `CCCCC(=O)NC1(C(F)(F)F)C(=O)N(Cc2ccco2)C(C)=C1C(=O)OC` (stereo not drawn): the cell number change amounted to 20.1%. For the same compound, under setting [2], the AC50 is 29.1 µM [rising, single point].

As to `Cc1cccc(OCC(=O)NCCNC(=O)c2ccco2)c1`, the cell number change came out at 19.2%. In addition, the AC50 under setting [2] is 25.9 µM [rising, single point].

Regarding `CSCCNC(=O)c1ccc(OC2CCN(S(=O)(=O)N(C)C)CC2)cc1`, the cell number change was 10.6%.

Turning to `Cc1cc(=O)[nH]c2c(C)c(N)ccc12`, the cell number change came to 32.1%. For the same compound, the AC50 under setting [1] is 5.17 µM [rising, partial curve]. In addition, under setting [2], the AC50 is 6.51 µM [rising, partial curve, poor fit].

Turning to `COc1cccc(C(=S)N2CCCC2)c1OC`, the cell number change is -6.3%. Further, under setting [2], the AC50 was 6.51 µM [falling, single point].

In the case of `Cc1nnc(NC(=O)c2oc3ccccc3c2C)s1`, the AC50 under setting [1] was 2.59 µM [rising, partial curve, poor fit].

On to `O=C(/C=C\Nc1ccc2c(c1)OCO2)c1ccc(Cl)s1`, for which the cell number change stood at 66.2%. For the same compound, the AC50 under setting [1] is 29.1 µM [rising, single point].

For the compound `COc1cccc(NC(=O)Cn2cc(C=O)c3ccccc32)c1`, the cell number change is -17.9%. For the same compound, the AC50 under setting [2] is 18.4 µM [falling, single point].

Turning to `c1ccc(-c2cn3c(n2)CCc2ccc4cccnc4c2-3)cc1`, the cell number change turned out to be 24.6%. For the same compound, the AC50 under setting [2] was 2.59 µM [rising, single point].

With `O=C(CSc1ccc(Cl)cc1)NCC1CCCO1` (stereo not drawn), the cell number change is -17.1%. In addition, the AC50 under setting [1] was 0.651 µM [falling, full curve, poor fit].

Take `COc1ccc(-c2noc(C(C)NS(=O)(=O)c3ccc(NC(C)=O)cc3)n2)cc1` (stereo not drawn): the cell number change is 20.6%.

For `COc1cc(C)ccc1OCCOc1c(Cl)cc(Cl)cc1Cl`, the cell number change is -4.23%. Further, the AC50 under setting [2] is 4.61 µM [falling, single point].

Take `Cc1cccc(-c2oc3ccc(-c4ccc5c(c4)OCO5)cc3c2/C=C/c2ccc(N)cc2)c1`: the cell number change was -10%. In addition, the AC50 under setting [2] was 6.51 µM [rising, single point].

Regarding `CCOC(=O)c1cnn2c(C(F)(F)F)cc(-c3ccco3)nc12`, the cell number change is -18.8%.

For the compound `CCCCNc1nc(=S)[nH]c2cc(OC)c(OC)cc12`, the cell number change was found to be 93.9%. Also, the AC50 under setting [1] was 29.1 µM [rising, single point].

Regarding `O=[N+]([O-])c1ccc(O)c(/C=N/Nc2ncnc3c2cnn3-c2ccccc2)c1`, the cell number change is -28.8%. Further, the AC50 under setting [2] is 4.61 µM [falling, full curve, poor fit].

Turning to `COc1cc(OC)cc(C(=O)NC(C(=O)NCc2ccccn2)C(C)C)c1` (stereo not drawn), the cell number change is -1.3%. Also, the AC50 under setting [2] is 20.6 µM [rising, single point].

Regarding `CCCCn1c(N)c(N(CCOC)C(=O)c2cc(-c3ccc(F)cc3)nc3ccccc23)c(=O)[nH]c1=O`, the cell number change was 5.97%.

As to `C=CCN=c1scc(-c2ccco2)n1/N=C/c1ccc(O)c(O)c1O`, the cell number change was -31.4%. Further, the AC50 under setting [1] was 0.0517 µM [falling, full curve]. Further, the AC50 under setting [2] was 0.651 µM [falling, full curve].

`O=C(CCNS(=O)(=O)c1cccc2nonc12)N1CCN(c2cccc(Cl)c2)CC1`: the cell number change turned out to be 69.4%. Further, the AC50 under setting [1] is 13 µM [rising, partial curve].

In the case of `Cc1ccc(NC(=O)NCCc2ccc(S(N)(=O)=O)cc2)cc1`, the cell number change was 1.06%. Moreover, the AC50 under setting [2] was 13 µM [rising, partial curve, poor fit].

`O=C(Nc1cccc(C(=O)Nc2ccc(Br)cc2)c1)c1ccccc1`: the cell number change was 40.4%. For the same compound, the AC50 under setting [2] was 11.6 µM [falling, single point].

Consider `CC1CCCC(=C\c2ccccc2)/C1=N/O` (stereo not drawn), for which the cell number change worked out at 15%. In addition, the AC50 under setting [1] was 3.66 µM [rising, single point].

As to `CCOC(=O)N1CCN(C(=O)c2cc3cc(F)ccc3[nH]2)CC1`, the cell number change turned out to be 10.4%. In addition, the AC50 under setting [2] was 4.11 µM [rising, full curve, poor fit].

As for `CCN(CC(=O)Nc1c(F)cccc1F)C(=O)CCc1ccc(OC)cc1`, the AC50 under setting [2] is 2.91 µM [rising, single point].

For `CCN(CC)S(=O)(=O)c1ccc(Cl)c(C(=O)Nc2cc(C)nn2-c2ccccc2)c1`, the cell number change was 11.1%. Under setting [2], the AC50 is 6.51 µM [falling, single point].

Regarding `CN(C(=O)CCNC(=O)Cn1ccc2ccccc2c1=O)c1ccc(Br)cc1`, the cell number change worked out at 16.7%. The AC50 under setting [2] is 29.1 µM [rising, single point].

With `CC1CC(C)CN(CCCNC(=O)c2csc3c2CCCC3)C1` (stereo not drawn), the cell number change was determined as 21.2%.

`COc1ccc(/C=C(\C#N)C(=O)OCC(=O)Nc2ccc(-c3nc4ccc(C)cc4s3)cc2)cc1`: the cell number change amounted to 7.32%.

For `COc1ccc(S(=O)(=O)N2CCN(C3CCN(Cc4ccccc4)CC3)CC2)cc1`, the cell number change is -24.9%. Moreover, the AC50 under setting [1] is 3.26 µM [falling, full curve, poor fit]. Moreover, the AC50 under setting [2] was 10.3 µM [rising, partial curve, poor fit].

For `O=C(COC(=O)c1ccc(S(=O)(=O)N2CCCC2)cc1)Nc1cccnc1Cl`, the cell number change was -0.311%.

As to `O=S(=O)(NCCC1=CCCCC1)c1ccccc1Cl`, the cell number change was -29.9%. The AC50 under setting [2] is 13 µM [falling, partial curve, poor fit].

Take `Cc1ccc(C(=O)Nc2nc(-c3cccnc3)cs2)o1`: the cell number change is -10.7%.

Regarding `c1ccc(N/N=C(\Cc2nc3ccccc3[nH]2)c2ccccc2)cc1`, the cell number change is -9.17%. For the same compound, under setting [2], the AC50 is 2.06 µM [rising, partial curve, poor fit].

As for `Clc1ccc(OCc2nn3c(-c4ccco4)nnc3s2)c(Cl)c1`, the cell number change was -42.9%. For the same compound, the AC50 under setting [1] is 29.1 µM [falling, single point]. Besides, the AC50 under setting [2] was 3.66 µM [rising, single point].

In the case of `CCCc1cc(=O)oc2cc(C)cc(OC(C)C(=O)NCc3cccnc3)c12` (stereo not drawn), the cell number change was found to be 19%.

As to `O=C(CN1CCN(c2ccccn2)CC1)Nc1ccc([N+](=O)[O-])cc1C(=O)Nc1ccccc1F`, the cell number change is -50.4%. In addition, the AC50 under setting [1] is 16.4 µM [falling, partial curve]. In addition, the AC50 under setting [2] was 20.6 µM [falling, partial curve].

On to `COc1ccc(S(=O)(=O)NCc2cccnc2)cc1Br`, for which the cell number change is -34.1%. Under setting [1], the AC50 is 10.3 µM [falling, partial curve, poor fit]. The AC50 under setting [2] was 29.1 µM [falling, single point].

As for `COC(C[C@H]1O[C@@H]1[C@H](O)COCc1ccccc1)OC`, the cell number change is -27.6%. Besides, the AC50 under setting [1] is 0.82 µM [falling, partial curve]. Under setting [2], the AC50 is 6.51 µM [rising, single point].

Consider `COc1ccc(-c2sc3cc4c(cc3c2C#CC2(N)CCCCC2)OCO4)cc1`, for which the cell number change is -89%. Moreover, the AC50 under setting [1] was 23.1 µM [falling, single point]. Moreover, the AC50 under setting [2] is 11.6 µM [falling, single point].

Turning to `COc1ccccc1N1CCN(S(=O)(=O)CCNC(=O)C2CCCCC2)CC1`, the AC50 under setting [2] is 0.092 µM [falling, full curve, poor fit].
